The other results are listed elsewhere or left out.
Assays:
Assay in all cases: log2 fold change, soluble protein after heating vs DMSO (PISA); higher = thermal stabilisation; K562 lysate, 10 uM; active = over 0.2 and 3.5 SD of the protein, either way, in both replicates (recomputed)
[1] = compound: CC1=C(C=C(C=C1)NC(=O)C2=CC(=CC=C2)C(C)(C)C#N)NC3=CC4=C(C=C3)N=CN(C4=O)C
Summary of the method: (§1)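 A 30 min treatment with 10 μM compound was applied to crude K562 extract at 1 mg/mL protein in PBS pH 7.4 with 1 mM MgCl2. Heating for 3 min spanned 48°C-58°C, after which aliquots were pooled, adjusted to 0.5% NP-40 at 4°C and spun at 21,000xg for 90 min. TMTpro 16plex LC-MS/MS of the supernatant, with channel sums equalised, gave values recorded as log-two fold change in thermal stability against solvent controls, from duplicates.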

Protein sequences, listed by entry. Tags and fused reporters are not part of them. Lines headed by an entry give the natural chain unless they say otherwise; changes in a name come on top.
UniProt P24557: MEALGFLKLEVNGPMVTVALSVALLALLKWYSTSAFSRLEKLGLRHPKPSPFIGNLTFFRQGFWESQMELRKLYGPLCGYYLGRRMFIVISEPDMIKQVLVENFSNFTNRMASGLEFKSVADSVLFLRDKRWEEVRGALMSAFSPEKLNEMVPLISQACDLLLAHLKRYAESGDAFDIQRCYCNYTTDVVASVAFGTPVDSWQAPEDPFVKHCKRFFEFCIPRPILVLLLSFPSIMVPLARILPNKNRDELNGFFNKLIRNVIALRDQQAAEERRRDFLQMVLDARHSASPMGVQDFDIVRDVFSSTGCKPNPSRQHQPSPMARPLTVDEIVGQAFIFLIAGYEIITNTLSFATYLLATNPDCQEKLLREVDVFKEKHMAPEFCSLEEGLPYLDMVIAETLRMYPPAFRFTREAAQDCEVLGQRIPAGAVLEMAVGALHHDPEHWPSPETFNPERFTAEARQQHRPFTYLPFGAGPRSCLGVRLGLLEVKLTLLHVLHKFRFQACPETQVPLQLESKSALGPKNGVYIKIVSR
UniProt P15923: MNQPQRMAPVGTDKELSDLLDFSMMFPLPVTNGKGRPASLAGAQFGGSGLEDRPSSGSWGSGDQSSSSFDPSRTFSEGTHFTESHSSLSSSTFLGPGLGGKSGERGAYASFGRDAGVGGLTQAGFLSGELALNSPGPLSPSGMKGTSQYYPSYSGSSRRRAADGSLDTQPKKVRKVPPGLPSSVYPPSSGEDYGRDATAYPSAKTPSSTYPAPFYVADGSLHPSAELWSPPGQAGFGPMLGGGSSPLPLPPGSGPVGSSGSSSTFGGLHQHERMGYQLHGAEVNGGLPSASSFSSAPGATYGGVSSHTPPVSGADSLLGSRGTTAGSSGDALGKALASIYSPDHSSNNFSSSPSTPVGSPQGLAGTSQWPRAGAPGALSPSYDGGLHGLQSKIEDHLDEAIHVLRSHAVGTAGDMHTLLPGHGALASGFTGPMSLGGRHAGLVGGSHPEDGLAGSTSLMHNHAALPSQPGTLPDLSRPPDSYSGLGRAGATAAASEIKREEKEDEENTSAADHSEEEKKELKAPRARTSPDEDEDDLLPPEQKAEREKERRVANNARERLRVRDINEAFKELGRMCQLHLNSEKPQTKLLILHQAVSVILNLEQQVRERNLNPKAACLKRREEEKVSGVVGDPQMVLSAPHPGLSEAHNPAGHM
UniProt P10646, whole entry, looked up: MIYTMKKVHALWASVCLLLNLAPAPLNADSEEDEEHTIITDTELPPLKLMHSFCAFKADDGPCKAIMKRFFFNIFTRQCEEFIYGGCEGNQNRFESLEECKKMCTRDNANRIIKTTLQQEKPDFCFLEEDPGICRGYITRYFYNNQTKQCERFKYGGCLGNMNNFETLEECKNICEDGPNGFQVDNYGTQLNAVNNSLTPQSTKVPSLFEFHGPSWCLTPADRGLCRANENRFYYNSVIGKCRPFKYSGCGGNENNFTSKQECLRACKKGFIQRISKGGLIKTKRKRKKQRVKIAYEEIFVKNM
UniProt O95455: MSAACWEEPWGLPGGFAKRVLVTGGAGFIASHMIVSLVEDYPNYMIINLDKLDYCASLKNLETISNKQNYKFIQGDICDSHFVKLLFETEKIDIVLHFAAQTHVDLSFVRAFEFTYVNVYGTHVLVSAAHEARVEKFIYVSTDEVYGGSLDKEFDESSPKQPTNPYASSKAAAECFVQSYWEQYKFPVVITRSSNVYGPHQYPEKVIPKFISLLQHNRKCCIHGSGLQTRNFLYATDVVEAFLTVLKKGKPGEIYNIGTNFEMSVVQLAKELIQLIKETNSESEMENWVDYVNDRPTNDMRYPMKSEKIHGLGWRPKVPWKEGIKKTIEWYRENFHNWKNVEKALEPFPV
UniProt Q9NVR7: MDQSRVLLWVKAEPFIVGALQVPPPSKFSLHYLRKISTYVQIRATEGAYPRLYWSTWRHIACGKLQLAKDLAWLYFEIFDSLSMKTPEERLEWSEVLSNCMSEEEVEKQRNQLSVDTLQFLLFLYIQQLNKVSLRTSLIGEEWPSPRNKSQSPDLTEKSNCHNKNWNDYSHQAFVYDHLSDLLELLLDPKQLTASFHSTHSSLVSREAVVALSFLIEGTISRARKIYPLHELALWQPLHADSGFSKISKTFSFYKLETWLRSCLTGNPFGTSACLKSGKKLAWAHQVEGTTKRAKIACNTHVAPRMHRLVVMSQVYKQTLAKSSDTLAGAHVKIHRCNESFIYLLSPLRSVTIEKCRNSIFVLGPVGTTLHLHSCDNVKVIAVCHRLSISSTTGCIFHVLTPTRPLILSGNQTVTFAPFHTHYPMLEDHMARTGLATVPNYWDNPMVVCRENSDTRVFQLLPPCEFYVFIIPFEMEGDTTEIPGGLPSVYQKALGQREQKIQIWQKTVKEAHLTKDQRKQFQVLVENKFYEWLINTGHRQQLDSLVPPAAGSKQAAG
UniProt Q6N022: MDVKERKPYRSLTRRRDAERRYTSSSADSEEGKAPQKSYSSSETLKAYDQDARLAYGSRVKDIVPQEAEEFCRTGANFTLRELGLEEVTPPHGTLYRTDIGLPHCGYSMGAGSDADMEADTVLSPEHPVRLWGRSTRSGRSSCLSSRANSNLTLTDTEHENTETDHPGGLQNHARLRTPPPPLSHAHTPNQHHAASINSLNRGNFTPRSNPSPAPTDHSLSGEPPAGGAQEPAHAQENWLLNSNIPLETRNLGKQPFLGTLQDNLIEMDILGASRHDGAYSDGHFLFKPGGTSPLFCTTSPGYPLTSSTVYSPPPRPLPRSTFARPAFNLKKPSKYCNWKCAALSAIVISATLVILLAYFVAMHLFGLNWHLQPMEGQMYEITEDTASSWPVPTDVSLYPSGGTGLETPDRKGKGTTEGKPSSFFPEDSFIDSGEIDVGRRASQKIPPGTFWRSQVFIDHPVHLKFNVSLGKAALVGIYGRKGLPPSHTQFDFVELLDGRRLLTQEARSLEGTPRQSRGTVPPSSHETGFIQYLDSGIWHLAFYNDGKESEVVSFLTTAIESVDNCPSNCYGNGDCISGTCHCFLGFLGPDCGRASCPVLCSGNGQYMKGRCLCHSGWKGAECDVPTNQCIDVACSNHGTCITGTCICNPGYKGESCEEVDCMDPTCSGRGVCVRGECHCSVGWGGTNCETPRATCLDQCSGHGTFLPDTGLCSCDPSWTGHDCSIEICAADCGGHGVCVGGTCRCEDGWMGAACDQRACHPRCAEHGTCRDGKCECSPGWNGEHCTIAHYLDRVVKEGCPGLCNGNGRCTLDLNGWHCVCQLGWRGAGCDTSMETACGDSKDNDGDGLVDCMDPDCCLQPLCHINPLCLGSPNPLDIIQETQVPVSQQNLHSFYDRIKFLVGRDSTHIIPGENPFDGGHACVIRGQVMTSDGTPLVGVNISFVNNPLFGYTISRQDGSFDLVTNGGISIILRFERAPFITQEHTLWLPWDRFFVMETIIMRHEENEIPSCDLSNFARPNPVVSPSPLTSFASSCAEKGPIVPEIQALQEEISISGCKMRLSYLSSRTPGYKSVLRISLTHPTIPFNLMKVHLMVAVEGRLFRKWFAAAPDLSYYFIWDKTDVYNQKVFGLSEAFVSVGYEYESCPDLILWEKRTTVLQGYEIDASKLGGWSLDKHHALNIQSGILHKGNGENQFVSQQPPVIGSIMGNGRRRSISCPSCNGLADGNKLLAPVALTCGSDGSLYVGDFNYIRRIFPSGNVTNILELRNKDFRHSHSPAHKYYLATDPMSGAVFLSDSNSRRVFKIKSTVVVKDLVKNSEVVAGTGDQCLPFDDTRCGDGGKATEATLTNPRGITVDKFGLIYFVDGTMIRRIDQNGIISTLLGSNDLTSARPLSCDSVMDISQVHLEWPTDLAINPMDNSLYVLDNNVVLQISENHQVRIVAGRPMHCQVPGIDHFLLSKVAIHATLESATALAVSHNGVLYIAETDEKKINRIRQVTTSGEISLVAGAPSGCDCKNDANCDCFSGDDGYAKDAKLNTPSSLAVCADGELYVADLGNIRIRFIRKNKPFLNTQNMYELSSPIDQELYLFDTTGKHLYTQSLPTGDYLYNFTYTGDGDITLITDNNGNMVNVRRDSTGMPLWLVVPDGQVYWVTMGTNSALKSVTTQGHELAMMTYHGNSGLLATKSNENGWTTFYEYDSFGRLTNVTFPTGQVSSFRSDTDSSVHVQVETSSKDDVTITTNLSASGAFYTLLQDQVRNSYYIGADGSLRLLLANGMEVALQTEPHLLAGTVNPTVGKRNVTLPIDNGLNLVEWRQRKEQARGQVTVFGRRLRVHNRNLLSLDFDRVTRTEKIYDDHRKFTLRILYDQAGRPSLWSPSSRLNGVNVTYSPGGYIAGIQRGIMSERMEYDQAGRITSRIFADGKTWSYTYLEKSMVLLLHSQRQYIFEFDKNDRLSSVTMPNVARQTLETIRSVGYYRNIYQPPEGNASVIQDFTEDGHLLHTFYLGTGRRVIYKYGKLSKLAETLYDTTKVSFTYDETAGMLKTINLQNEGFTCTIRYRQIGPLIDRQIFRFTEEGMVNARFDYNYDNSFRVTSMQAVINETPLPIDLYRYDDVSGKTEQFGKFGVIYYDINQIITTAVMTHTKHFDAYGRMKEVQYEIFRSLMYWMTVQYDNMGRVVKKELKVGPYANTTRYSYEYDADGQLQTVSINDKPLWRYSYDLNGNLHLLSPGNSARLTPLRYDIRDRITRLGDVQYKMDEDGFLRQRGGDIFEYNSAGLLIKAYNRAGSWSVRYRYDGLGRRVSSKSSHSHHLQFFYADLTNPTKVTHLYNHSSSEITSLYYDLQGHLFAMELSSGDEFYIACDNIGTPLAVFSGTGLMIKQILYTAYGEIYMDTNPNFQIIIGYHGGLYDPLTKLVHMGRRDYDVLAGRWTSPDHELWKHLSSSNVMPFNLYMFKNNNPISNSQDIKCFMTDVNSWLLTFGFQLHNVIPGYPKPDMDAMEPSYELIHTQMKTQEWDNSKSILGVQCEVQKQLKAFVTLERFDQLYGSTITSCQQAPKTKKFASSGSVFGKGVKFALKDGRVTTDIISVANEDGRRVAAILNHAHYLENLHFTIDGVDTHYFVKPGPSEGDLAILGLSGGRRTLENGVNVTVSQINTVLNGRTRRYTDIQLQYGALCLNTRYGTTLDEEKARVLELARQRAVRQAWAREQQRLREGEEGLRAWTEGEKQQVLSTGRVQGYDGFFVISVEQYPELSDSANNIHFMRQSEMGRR
UniProt Q6PIY7: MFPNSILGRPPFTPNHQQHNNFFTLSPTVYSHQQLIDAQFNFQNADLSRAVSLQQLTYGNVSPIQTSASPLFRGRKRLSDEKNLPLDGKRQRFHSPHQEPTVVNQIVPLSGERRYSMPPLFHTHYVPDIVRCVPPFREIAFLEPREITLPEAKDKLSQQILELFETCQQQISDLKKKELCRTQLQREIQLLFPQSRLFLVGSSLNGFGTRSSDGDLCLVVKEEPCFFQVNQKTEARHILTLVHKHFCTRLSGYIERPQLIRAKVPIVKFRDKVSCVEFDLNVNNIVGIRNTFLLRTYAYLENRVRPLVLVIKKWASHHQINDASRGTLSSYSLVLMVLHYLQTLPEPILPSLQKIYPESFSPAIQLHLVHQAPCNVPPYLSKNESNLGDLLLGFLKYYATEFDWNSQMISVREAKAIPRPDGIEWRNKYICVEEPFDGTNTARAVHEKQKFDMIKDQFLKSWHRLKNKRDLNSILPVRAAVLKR
UniProt Q86WV5: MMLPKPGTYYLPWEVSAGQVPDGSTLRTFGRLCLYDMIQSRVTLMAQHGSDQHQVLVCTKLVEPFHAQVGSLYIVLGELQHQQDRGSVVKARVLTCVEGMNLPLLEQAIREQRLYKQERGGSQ
UniProt Q96EI5: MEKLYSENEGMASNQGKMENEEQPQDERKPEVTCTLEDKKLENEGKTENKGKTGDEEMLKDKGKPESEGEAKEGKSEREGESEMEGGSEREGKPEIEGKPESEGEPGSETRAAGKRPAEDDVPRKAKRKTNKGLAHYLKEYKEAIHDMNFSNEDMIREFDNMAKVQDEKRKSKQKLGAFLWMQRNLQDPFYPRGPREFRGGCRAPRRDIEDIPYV
UniProt Q8N9U0: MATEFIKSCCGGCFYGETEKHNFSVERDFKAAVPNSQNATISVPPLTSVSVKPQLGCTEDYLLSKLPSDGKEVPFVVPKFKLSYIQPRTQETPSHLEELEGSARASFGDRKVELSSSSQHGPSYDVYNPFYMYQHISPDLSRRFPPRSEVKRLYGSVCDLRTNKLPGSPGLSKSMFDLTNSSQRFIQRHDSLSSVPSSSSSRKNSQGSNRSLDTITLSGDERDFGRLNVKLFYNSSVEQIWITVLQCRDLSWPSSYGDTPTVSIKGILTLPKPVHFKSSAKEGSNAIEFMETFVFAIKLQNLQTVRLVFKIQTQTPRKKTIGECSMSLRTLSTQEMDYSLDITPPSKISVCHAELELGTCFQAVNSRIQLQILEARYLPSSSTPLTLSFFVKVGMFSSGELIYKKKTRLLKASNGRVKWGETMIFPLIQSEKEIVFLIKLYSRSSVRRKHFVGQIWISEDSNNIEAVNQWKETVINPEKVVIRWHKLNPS
UniProt Q9UHQ7: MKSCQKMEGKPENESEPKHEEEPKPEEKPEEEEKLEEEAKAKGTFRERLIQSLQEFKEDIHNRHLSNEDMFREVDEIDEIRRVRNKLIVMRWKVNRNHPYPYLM

[2] = compound: C/C(=N\NC(=O)C1=CC(=CC=C1)S(=O)(=O)N2CCOCC2)/C3=C(C=CC(=C3)Cl)O
Summary of the method: as §1

[3] = compound: C1=CC2=C(C=CC(=C2)/C=C\3/C(=O)NC(=NCC4=CC=CS4)S3)N=C1
Summary of the method: as §1

[4] = compound: C1=CC=C2C(=C1)C3=NNC4=CC=CC(=C43)C2=O
Summary of the method: as §1

[5] = compound: C1CCN(C1)C(=O)NC2=CC=CC(=C2)NC3=NC=C(C(=N3)NCCC4=CN=CN4)Br
Summary of the method: as §1

[6] = compound: C1CN(CCC1(CC2=CC=C(C=C2)Cl)N)C3=NC=NC4=C3C=CN4
Summary of the method: as §1

[7] = compound: CC1=C(C2=C(C=C1)C(=O)C3=CC=CC=C3N2CCCN)C
Summary of the method: as §1

erlotinib = compound: C#Cc1cccc(Nc2ncnc3cc(OCCOC)c(OCCOC)cc23)c1 [erlotinib]
Summary of the method: as §1

[8] = compound: C1=CC(=CC=C1C2=NC3=C(N2)C=C(C=C3)C(=O)N)OC4=CC=C(C=C4)Cl
Summary of the method: as §1

[9] = compound: CC(=O)c1cnc2ccc(-c3cc(Cl)c(O)c(Cl)c3)nc2c1N[C@H]1CC[C@H](CN(C)C)CC1
Summary of the method: as §1

[10] = compound: CC(C)C1=C2N=C(C=C(N2N=C1)NCC3=CC=CC=C3)NCCCCCCN
Summary of the method: as §1

[11] = compound: CC1=CC=C(C=C1)SC2=C3C=C(SC3=CN=C2)C(=O)N
Summary of the method: as §1

[12] = compound: CC1=C(C(CC(=O)N1)C2=CC=C(C=C2)C(F)(F)F)C(=O)NC3=C(C=C4C(=C3)C=NN4)F
Summary of the method: as §1

[13] = compound: C1=CC=C(C=C1)C2=NC(=C(N2)C3=CC=NC=C3)C4=CC(=C(C=C4)Cl)O
Summary of the method: as §1

IRAK-1-4 Inhibitor I = compound: C1COCCN1CCN2C3=CC=CC=C3N=C2NC(=O)C4=CC(=CC=C4)[N+](=O)[O-] [IRAK-1-4 Inhibitor I]
Summary of the method: as §1

ralimetinib = compound: CC(C)(C)Cn1c(N)nc2ccc(-c3[nH]c(C(C)(C)C)nc3-c3ccc(F)cc3)nc21 [ralimetinib]
Summary of the method: as §1

[14] = compound: CC(C)(O)CC(=O)NCCn1ccc2ncnc(Nc3ccc(Oc4cccc(C(F)(F)F)c4)c(Cl)c3)c21
Summary of the method: as §1

[15] = compound: CC1=C(C=C(C=C1)NC(=O)C2=CC(=CC=C2)N(C)C)NC(=O)C3=CC=C(C=C3)O
Summary of the method: as §1

[16] = compound: C1=CC2=NC=CN=C2C=C1/C=C/3\C(=O)NC(=O)S3
Summary of the method: as §1

ibrutinib = compound: C=CC(=O)N1CCC[C@@H](n2nc(-c3ccc(Oc4ccccc4)cc3)c3c(N)ncnc32)C1 [ibrutinib]
Summary of the method: as §1

Measured: log2 fold change

TBXAS1 isoform 3 (UniProt P24557)
inactive: [1] -0.004

TCEAL8 (UniProt Q8IYN2)
inactive: [2] 0.015 | [3] -0.044 | [4] -0.013 | [5] -0.06 | [6] 0.023 | [7] -0.145 | [1] 0.013

TAZ (UniProt Q16635)
inactive: erlotinib -0.062 | [8] 0.12 | [9] -0.048 | [10] -0.067 | [1] 0.065 | [11] 0.002

TCTN3 (UniProt Q6NUS6)
inactive: [12] 0.039 | [1] -0.214

TAF8, A0A0A0MRR3
inactive: [7] -0.13

TCF3 isoform 2 (UniProt P15923)
inactive: erlotinib 0.131 | [8] -0.049 | [13] 0.154 | IRAK-1-4 Inhibitor I -0.249 | ralimetinib -0.118 | [14] -0.103 | [10] 0.046 | [1] -0.1 | [15] 0.118

TANC2 isoform 2 (UniProt Q9HCD6)
inactive: erlotinib -0.15 | [8] 0.115 | [13] -0.255 | IRAK-1-4 Inhibitor I -0.238 | ralimetinib 0.132 | [14] 0.229 | [10] 0.088 | [12] 0.132 | [7] 0.147 | [15] -0.109

TBCD, A0A0J9YWI5
inactive: [5] 0.177 | [6] 0.1 | [1] 0.081

TFPI isoform 2 (UniProt P10646)
inactive: [2] 0.01 | [3] 0.113 | [4] -0.171 | [1] -0.034

TEDC2 (UniProt Q7L2K0)
inactive: [9] 0 | [12] 0.041 | [1] 0.009 | [11] 0.034

2 successive records already listed, quoted:
TBXAS1 isoform 3 (UniProt P24557)
inactive: [1] -0.004

TCEAL8 (UniProt Q8IYN2)
inactive: [2] 0.015 | [3] -0.044 | [4] -0.013 | [5] -0.06 | [6] 0.023 | [7] -0.145 | [1] 0.013

The results go on:

TBCA (UniProt E5RHG6)
inactive: erlotinib -0.111 | [8] -0.147 | [13] -0.04 | IRAK-1-4 Inhibitor I 0.072 | ralimetinib 0.146 | [14] -0.224 | [10] 0.144 | [1] 0.001 | [15] 0.088

TGDS (UniProt O95455)
inactive: [16] 0.035 | ibrutinib 0.035 | [9] -0.046 | [12] -0.026 | [1] -0.092 | [11] 0.042

TBCCD1 (UniProt Q9NVR7)
inactive: erlotinib 0.042 | [8] 0.148 | [13] -0.167 | IRAK-1-4 Inhibitor I -0.111 | ralimetinib -0.044 | [14] 0.09 | [10] -0.14 | [15] -0.054

TENM4 (UniProt Q6N022)
inactive: [16] -0.334 | ibrutinib -0.043 | [9] 0.035 | [1] 0.162 | [11] -0.109

TCF4 (UniProt P15884)
inactive: [13] 0.005 | [5] 0.234 | [6] -0.165 | IRAK-1-4 Inhibitor I -0.152 | [9] -0.285 | ralimetinib -0.069 | [14] 0.005 | [12] 0.007 | [7] -0.019 | [1] -0.056 | [15] 0.003 | [11] -0.035

TENT2 (UniProt Q6PIY7)
inactive: [7] -0.218

TAOK2 isoform 2 (UniProt Q9UL54)
inactive: [12] 0.034

TEN1 (UniProt Q86WV5)
inactive: [12] 0.203

TARDBP (UniProt K7EN94)
inactive: [2] 0.293 | [3] -0.12 | [4] -0.12 | [5] 0.001 | [6] -0.19

TAOK2 (UniProt Q9UL54)
active: [4] 0.729
inactive: [2] 0.006 | [3] -0.034 | [16] 0.072 | [13] -0.031 | [5] 0.038 | [6] 0.058 | IRAK-1-4 Inhibitor I 0.072 | ibrutinib -0.009 | [9] 0.151 | ralimetinib -0.035 | [14] -0.033 | [12] -0.072 | [7] -0.053 | [1] -0.037 | [15] -0.044 | [11] 0.024

TCEAL1 isoform 2 (UniProt Q15170)
inactive: [2] 0.121 | [3] -0.051 | [16] -0.115 | [4] -0.011 | ibrutinib 0.557 | [9] 0.123 | [11] 0.017

TASOR2 (UniProt Q5VWN6)
inactive: [16] -0.137 | [13] -0.004 | [5] -0.025 | [6] -0.138 | IRAK-1-4 Inhibitor I 0.126 | ibrutinib 0.222 | ralimetinib 0.037 | [14] -0.176 | [12] -0.035 | [7] 0.112 | [15] 0.016

TBKBP1 (UniProt A7MCY6)
inactive: [16] -0.033 | ibrutinib 0.016

TCEA2 (UniProt Q15560)
inactive: [13] -0.124 | [5] 0.02 | [6] -0.071 | IRAK-1-4 Inhibitor I -0.077 | ralimetinib 0.14 | [14] 0.026 | [15] 0.189

TCEAL4 isoform 2 (UniProt Q96EI5)
inactive: [2] -0.082 | [3] -0.094 | [16] -0.15 | [4] -0.081 | [5] 0.041 | [6] -0.022 | ibrutinib 0.013 | [9] 0.054 | [7] 0.007 | [1] 0.058 | [11] -0.003

TC2N (UniProt Q8N9U0)
inactive: [2] -0.009 | [3] -0.005 | [4] -0.152 | [5] -0.156 | [6] 0.075

TEC (UniProt P42680)
inactive: [2] 0.092 | [3] -0.051 | [4] -0.048 | [5] -0.024 | [6] -0.038 | [9] -0.096 | [12] -0.023 | [11] 0.143

TCEAL9 (UniProt Q9UHQ7)
inactive: [2] -0.16 | [3] -0.027 | [4] 0.032 | [12] 0.029 | [1] -0.034

TBX1 isoform 3 (UniProt O43435)
inactive: [2] -0.094 | [3] 0.135 | [16] 0.097 | [4] -0.007 | [5] 0.027 | [6] 0.118 | ibrutinib -0.016

From the supplement of paper PMC10849652
